# Results taken from paper PMC3287977.
# Results are given in words; binding and its absence hold for the method and conditions named. In cells and extracts the contact can be indirect. Some binding calls cover weakened binding; strength is not graded here. Sequences can lack the tags named with a protein.
# T1: GST-tagged E. coli HypA (E. coli) (UniProt P0A700)
# T1 sequence: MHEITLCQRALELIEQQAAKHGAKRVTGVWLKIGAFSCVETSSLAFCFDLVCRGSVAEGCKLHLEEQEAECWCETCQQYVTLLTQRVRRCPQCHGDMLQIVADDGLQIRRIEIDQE
# Target: T1, GST-tagged E. coli HypA (E. coli)
# Test: pull-down; GST-EcHypA as bait on glutathione resin; lysate of His-SUMO-EcHypB (tag not cleaved) or variant mixed with GST-EcHypA lysate; washed with PBS; eluted with 20 mM GSH; SDS-PAGE
row,Binder,binding
1,"His-SUMO-tagged E. coli HypB, wild type (protein, UniProt P0AAN3 1-290) MCTTCGCGEGNLYIEGDEHNPHSAFRSAPFAPAARPKMKITGIKAPEFTPSQTEEGDLHYGHGEAGTHAPGMSQRRMLEVEIDVLDKNNRLAERNRARFAARKQLVLNLVSSPGSGKTTLLTETLMRLKDSVPCAVIEGDQQTVNDAARIRATGTPAIQVNTGKGCHLDAQMIADAAPRLPLDDNGILFIENVGNLVCPASFDLGEKHKVAVLSVTEGEDKPLKYPHMFAAASLMLLNKVDLLPYLNFDVEKCIACAREVNPEIEIILISATSGEGMDQWLNWLETQRCA",binds
2,"His-SUMO-tagged E. coli HypB E79A (protein, UniProt P0AAN3 1-290) MCTTCGCGEGNLYIEGDEHNPHSAFRSAPFAPAARPKMKITGIKAPEFTPSQTEEGDLHYGHGEAGTHAPGMSQRRMLAVEIDVLDKNNRLAERNRARFAARKQLVLNLVSSPGSGKTTLLTETLMRLKDSVPCAVIEGDQQTVNDAARIRATGTPAIQVNTGKGCHLDAQMIADAAPRLPLDDNGILFIENVGNLVCPASFDLGEKHKVAVLSVTEGEDKPLKYPHMFAAASLMLLNKVDLLPYLNFDVEKCIACAREVNPEIEIILISATSGEGMDQWLNWLETQRCA",binds
3,"His-SUMO-tagged E. coli HypB L78A (protein, UniProt P0AAN3 1-290) MCTTCGCGEGNLYIEGDEHNPHSAFRSAPFAPAARPKMKITGIKAPEFTPSQTEEGDLHYGHGEAGTHAPGMSQRRMAEVEIDVLDKNNRLAERNRARFAARKQLVLNLVSSPGSGKTTLLTETLMRLKDSVPCAVIEGDQQTVNDAARIRATGTPAIQVNTGKGCHLDAQMIADAAPRLPLDDNGILFIENVGNLVCPASFDLGEKHKVAVLSVTEGEDKPLKYPHMFAAASLMLLNKVDLLPYLNFDVEKCIACAREVNPEIEIILISATSGEGMDQWLNWLETQRCA",no binding
4,"His-SUMO-tagged E. coli HypB V80A (protein, UniProt P0AAN3 1-290) MCTTCGCGEGNLYIEGDEHNPHSAFRSAPFAPAARPKMKITGIKAPEFTPSQTEEGDLHYGHGEAGTHAPGMSQRRMLEAEIDVLDKNNRLAERNRARFAARKQLVLNLVSSPGSGKTTLLTETLMRLKDSVPCAVIEGDQQTVNDAARIRATGTPAIQVNTGKGCHLDAQMIADAAPRLPLDDNGILFIENVGNLVCPASFDLGEKHKVAVLSVTEGEDKPLKYPHMFAAASLMLLNKVDLLPYLNFDVEKCIACAREVNPEIEIILISATSGEGMDQWLNWLETQRCA",no binding
